Taken from: PubChem BioAssay AID1259308 (NCATS, 2017)
This is a random part of about 59,000 deposited reagents. About 1,510 of all reagents (2.6%) count as active. 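Calls use total luciferase alone and ignore viability, so some active siRNAs may act by altering cell number.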 The numbers tell different reagents against one gene apart. Further read-outs or replicates are left out here.

Purpose: 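Genes whose loss raises luciferase production in HEK293 cells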 (primary screen)
Cells: human HEK293 embryonic kidney cells stably expressing firefly luciferase (HEK-CMV-Luc2-Hygro)
Knock-down reagent: single siRNA against human genes, 0.8 pmol siRNA per well
Timing: 72 h
Detection: 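Luciferase light (ONE-Glo) measured on one replicate plate set and viability (CellTiter-Glo) on the other, scaled to a negative control siRNA, with robust z-scores and luciferase per cell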
Direction: total luciferase, z-score: higher = more reporter protein produced
Hit rule: 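Active when the median/MAD z-score for overall luciferase is greater than 3; a gene was taken forward for validation with new siRNAs if at least two of its three siRNAs passed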
Calls: active = raised luciferase; inactive = no rise

The first 2 records, ahead of the listing:
no.	target	reagent	total luciferase, z-score	call
1	MOB1A (MOB kinase activator 1A)	1	-1.3	inactive
2	MOB1A (MOB kinase activator 1A)	2	0.382	inactive

Results, from the start:
no.	target	reagent	total luciferase, z-score	call
1	MOB1A (MOB kinase activator 1A)	1	-1.3	inactive
2	MOB1A (MOB kinase activator 1A)	2	0.382	inactive
3	MOB1A (MOB kinase activator 1A)	3	-0.571	inactive
4	RAD51-AS1 (RAD51 antisense RNA 1)	1	-1.34	inactive
5	RAD51-AS1 (RAD51 antisense RNA 1)	2	-0.136	inactive
6	RAD51-AS1 (RAD51 antisense RNA 1)	3	-0.8	inactive
7	CSNK2A1 (casein kinase 2 alpha 1)	1	-0.694	inactive
8	CSNK2A1 (casein kinase 2 alpha 1)	2	0.615	inactive
9	CSNK2A1 (casein kinase 2 alpha 1)	3	1.03	inactive
10	SLC25A4	1	-1.1	inactive
11	SLC25A4	2	0.155	inactive
12	SLC25A4	3	-0.174	inactive
13	TPSAB1 (tryptase alpha/beta 1)	1	0.162	inactive
14	TPSAB1 (tryptase alpha/beta 1)	2	0.996	inactive
15	TPSAB1 (tryptase alpha/beta 1)	3	0.292	inactive
16	DNAAF1 (dynein axonemal assembly factor 1)	1	-0.0801	inactive
17	DNAAF1 (dynein axonemal assembly factor 1)	2	-0.995	inactive
18	DNAAF1 (dynein axonemal assembly factor 1)	3	0.436	inactive
19	ANKRD36C (ankyrin repeat domain 36C)	1	-1.53	inactive
20	ANKRD36C (ankyrin repeat domain 36C)	2	-0.987	inactive
21	ANKRD36C (ankyrin repeat domain 36C)	3	1.02	inactive
22	MYRIP (myosin VIIA and Rab interacting protein)	1	-0.417	inactive
23	MYRIP (myosin VIIA and Rab interacting protein)	2	-0.437	inactive
24	MYRIP (myosin VIIA and Rab interacting protein)	3	0.951	inactive
